Out of some 310,000 compounds screened, about 17,000 (5.5%) were called active. The inconclusive results got no clear call from the source; some entries with a clear call stand among them for comparison. Calls come from the whole dose curve; as a rule, active = well fitted inhibition curve with a large enough effect; inconclusive = small, poorly fitted or top-dose-only effect, or effect the other way; inactive = no such curve, though single readings can be large or run the other way. Potencies of inconclusive entries are doubtful fits and often do not repeat.
Molecular target: Nuclear receptor ROR-gamma (Mus musculus) (UniProt P51450)
Test: qHTS for inhibitors of ROR gamma transcriptional activity; note: nearly all actives have a fitted effect of over 60% in size
Details: Drosophila S2 Gal4-RORgamma UAS-luciferase reporter, 20 h; activity change, negative = inhibition: at 53.6 µM (top of the series)
Method in brief: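 Compounds are pin-transferred onto Drosophila Schneider cells expressing a copper-inducible Gal4–ROR gamma transactivation domain fusion. After 1 hr, copper sulfate is added to 700 uM final; luciferase is read 20 hr later.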
% is set by controls: 0 for no effect and ±100 for the full control effect; potency is the fitted concentration of half-maximal effect.

Protein sequences, listed by entry. Tags and fused reporters are not part of them. Lines headed by an entry give the natural chain unless they say otherwise; changes in a name come on top.
UniProt P51450: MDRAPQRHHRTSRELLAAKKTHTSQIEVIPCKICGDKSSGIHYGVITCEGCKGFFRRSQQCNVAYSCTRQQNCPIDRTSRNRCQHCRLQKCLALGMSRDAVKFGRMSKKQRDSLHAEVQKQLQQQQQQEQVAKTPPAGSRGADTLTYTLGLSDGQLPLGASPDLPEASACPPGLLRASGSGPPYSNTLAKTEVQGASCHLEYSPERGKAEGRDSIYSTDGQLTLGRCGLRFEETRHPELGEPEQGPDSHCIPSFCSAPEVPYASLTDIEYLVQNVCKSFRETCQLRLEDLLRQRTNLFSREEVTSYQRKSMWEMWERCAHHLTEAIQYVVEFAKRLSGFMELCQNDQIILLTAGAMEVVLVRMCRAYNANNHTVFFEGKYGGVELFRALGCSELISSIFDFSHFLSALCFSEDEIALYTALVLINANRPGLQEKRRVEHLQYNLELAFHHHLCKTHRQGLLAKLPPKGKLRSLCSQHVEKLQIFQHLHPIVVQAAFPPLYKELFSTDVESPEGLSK

| Structure (SMILES) | Potency | activity change, negative = inhibition |
| --- | --- | --- |
| O=c1[nH]c(N2CCCCC2)nc2c1CCCC2 | inconclusive: 17.8 µM [activator, partial curve, poor fit] | – |
| Cc1c(Cl)cccc1NC(=S)N(CCCN1CCOCC1)Cc1cccs1 | active: 10 µM | – |
| CCc1cc(SC#N)cc(CC)c1NC(=O)CCl | inconclusive: 25.1 µM [inhibitor, single point] | – |
| Cc1cccc(CS(=O)(=O)c2ncc(Cl)c(C(=O)Nc3nnc(C(C)C)s3)n2)c1 | active: 0.0224 µM | – |
| CNC(=S)N/N=C/c1cc(Br)cc(Br)c1O | active: 3.16 µM | – |
| COc1ccc(NS(=O)(=O)c2ccc3nc(COc4cccc5ccccc45)[nH]c3c2)cc1 | inconclusive: 35.5 µM [activator, single point] | – |
| O=C(N/N=C/c1ccc(F)cc1)c1ccc(Br)cc1 | inconclusive: 11.2 µM [inhibitor, single point] | – |
| N#Cc1c(N)nc2c3c(sc(=N)c2c1N)NC(=O)CC3c1c(F)cccc1Cl (stereo not drawn) | inconclusive: 15.8 µM [inhibitor, single point] | – |
| O=C(c1ccccn1)N1CCN(c2ccc(C(F)(F)F)cn2)CC1 | inconclusive: 14.1 µM [activator, partial curve] | – |
| CCC(=O)c1ccc(N2CCCC2)c(F)c1 | inconclusive: 10 µM [activator, single point] | – |
| CC1CCCC(C)N1C(=O)CSc1nnnn1C1CCCC1 (stereo not drawn) | – | inactive: 5% |
| O=C(CN1C(=O)C2(OCCO2)c2ccccc21)c1ccc(Br)cc1 | inconclusive: 2.51 µM [activator, partial curve, poor fit] | – |
| COc1cc([N+](=O)[O-])c(OC)cc1SCc1n[nH]c(=S)n1-c1ccc(C)cc1 | active: 2.24 µM | – |
| CC(=O)OC[C@H]1O[C@@H](Sc2cccc3cccnc23)[C@H](OC(C)=O)[C@@H](OC(C)=O)[C@H]1OC(C)=O | inconclusive: 17.8 µM [inhibitor, single point] | – |
| Cc1ncn(C23CC4CC(CC(C4)C2)C3)n1 | – | inactive: -43.5% |
| Brc1ccc(N/N=C(/N=Nc2nn[nH]n2)c2ccccc2)cc1 | inconclusive: 0.282 µM [inhibitor, partial curve] | – |
| COc1ccc(Cl)cc1NC(=S)NCCN1CCOCC1 | – | inactive: -10.1% |
| Cc1cc(NC(=O)CSc2nnc(-c3ccccc3)c(-c3ccccc3)n2)no1 | – | inactive: -10.7% |
| CC(=O)N1CCN(C(=S)NC(=O)C23CC4CC(CC(C4)C2)C3)CC1 | active: 14.1 µM | – |
| Cc1ccc(C(C)C)c(OCc2ccc(C(=O)N/N=C/c3ccc(O)cc3O)cc2)c1 | active: 6.31 µM | – |
| CN(C)CCCNC(=S)NCC(c1ccc(Cl)cc1Cl)c1c[nH]c2ccccc12 (stereo not drawn) | inconclusive: 22.4 µM [inhibitor, single point] | – |
| CC(=O)N1CCc2cc(S(=O)(=O)NCCC(=O)N3CCc4ccccc4C3)ccc21 | inconclusive: 31.6 µM [activator, single point] | – |
| CC1(C)CC(=O)CC(=O)/C1=N\Nc1c(Cl)cc(Cl)cc1Cl | inconclusive: 25.1 µM [inhibitor, single point] | – |
| CCOc1ccc(N2C(=O)CNC2=S)cc1 | – | inactive: -21% |
| Cc1ccc(CC2S/C(=N/c3ccccn3)NC2=O)cc1 (stereo not drawn) | active: 2.82 µM | – |
| S=C(Nc1cc(Cl)cc(Cl)c1)N1CCCC1 | active: 5.01 µM | – |

Record cards (already shown):
CN(C)CCCNC(=S)NCC(c1ccc(Cl)cc1Cl)c1c[nH]c2ccccc12 (stereo not drawn) is listed as Potency: inconclusive: 22.4 µM [inhibitor, single point]
CCOc1ccc(N2C(=O)CNC2=S)cc1 is listed as activity change, negative = inhibition: inactive: -21%

The list goes on:

| Structure (SMILES) | Potency | activity change, negative = inhibition |
| --- | --- | --- |
| Cc1onc(-c2ccccc2)c1C(=O)NNC(=S)NC(=O)/C=C/c1cccs1 | active: 3.55 µM | – |
| Cc1ccc(S(=O)(=O)Nc2ccc(O)c3ncccc23)cc1 | active: 2.51 µM | – |
| CCN(c1ccccc1)S(=O)(=O)c1ccc2[nH]cc(C(=O)NCCOC)c(=O)c2c1 | – | inactive: -4.76% |
| O=c1c(C/C=C/c2ccccc2)c(O)nc2n1CCCS2 | – | inactive: 5.71% |
| CCn1c(SC(C)C(=O)O)nc2sc3c(c2c1=O)CCC3 (stereo not drawn) | active: 5.62 µM | – |
| N#Cc1ccccc1NC(=O)CSc1n[nH]c(-c2ccco2)n1 | inconclusive: 22.4 µM [inhibitor, single point] | – |
| Cc1cccc(N2CCN(C(=O)CSc3ccsc3[N+](=O)[O-])CC2C)c1 (stereo not drawn) | – | inactive: 3.13% [at 10 µM] |
| CC(=O)N/N=C/c1cc(C(C)(C)C)cc(/C=N/NC(C)=O)c1O | active: 2.82 µM | – |
| Cn1c(=O)c2c(nc(Br)n2C/C=N/NC(N)=S)n(C)c1=O | active: 5.01 µM | – |
| CC(=O)c1cn(CC(=O)Nc2cccc(C)c2C)c2ccccc12 | inconclusive: 31.6 µM [inhibitor, single point] | – |
| CCC(=O)Nc1ccc2c(c1)C(=O)c1ccccc1C2=O | – | inactive: -39.1% |
| O=C(Nc1ccc2ncccc2c1)c1cc(Cl)ccc1Cl | inconclusive: 10 µM [activator, partial curve] | – |
| CC(=O)N1CC(=O)N(c2ccccc2)C1=O | – | inactive: -10.8% |
| Cc1ccccc1C(=O)N1CCN(c2ccc(NC(=O)c3ccco3)cc2Cl)CC1 | inconclusive: 11.2 µM [inhibitor, partial curve, poor fit] | – |
| O=C(CN1CCN(c2ccc(O)cc2)CC1)NC(=O)NCc1ccco1 | inconclusive: 35.5 µM [activator, single point] | – |
| N#Cc1ccc(NC(=O)Cn2cnc(S(=O)(=O)N3CCc4ccccc43)c2)cc1 | – | inactive: 18% |
| COc1ccc2c(n1)Sc1nc3ccccc3nc1N2 | inconclusive: 1.41 µM [activator, full curve, poor fit] | – |
| COc1ccc(-c2cnc(-c3cccnc3)o2)cc1 | inconclusive: 2.82 µM [activator, single point] | – |
| CCOc1ccc(/C=N/n2nnnc2N)cc1O | inconclusive: 11.2 µM [activator, single point] | – |
| CCOc1ccccc1NC(=S)N1CCN(c2cccc(OC)c2)CC1 | active: 12.6 µM | – |
| C=C1C(=O)O[C@@H]2[C@H]1[C@@H](OC(=O)/C(C)=C/C)C/C(C)=C\C(=O)/C=C(\C)[C@@H]2O | inconclusive: 7.08 µM [inhibitor, full curve, poor fit] | – |
| C/C(=N\NC(=S)NC(C)C)c1cccc([N+](=O)[O-])c1 | active: 1.26 µM | – |
| COc1ccccc1NC(=S)NCc1ccc(Cl)cc1 | active: 11.2 µM | – |
| O=c1c2ccccc2nc2n1CCN2Cc1ccc(Cl)cc1 | inconclusive: 20 µM [activator, single point] | – |
| CCOc1ccc(C(=O)/C=C/c2cn(CN3CCN(C)CC3)c3ccccc23)cc1 | – | inactive: -17.8% |
| O=C(CN1C(=O)CCSc2ccccc21)NC1CCCCC1 | – | inactive: -3.63% |

Another view of five compounds above:
Structure (SMILES)	Potency	activity change, negative = inhibition
Cc1ncn(C23CC4CC(CC(C4)C2)C3)n1	–	inactive: -43.5%
Brc1ccc(N/N=C(/N=Nc2nn[nH]n2)c2ccccc2)cc1	inconclusive: 0.282 µM [inhibitor, partial curve]	–
COc1ccc(Cl)cc1NC(=S)NCCN1CCOCC1	–	inactive: -10.1%
Cc1cc(NC(=O)CSc2nnc(-c3ccccc3)c(-c3ccccc3)n2)no1	–	inactive: -10.7%
CC(=O)N1CCN(C(=S)NC(=O)C23CC4CC(CC(C4)C2)C3)CC1	active: 14.1 µM	–

Additional records:

| Structure (SMILES) | Potency | activity change, negative = inhibition |
| --- | --- | --- |
| CC(C)c1ccc(C(=O)NNC(=O)C2CC=CCC2C(=O)O)cc1 (stereo not drawn) | – | inactive: -7.61% |
| O=C(NCc1ccco1)c1ccc(N2CCCCC2)c([N+](=O)[O-])c1 | inconclusive: 11.2 µM [activator, partial curve] | – |
| O=C(CCNC(=O)c1ccccc1Cl)Nc1nc(-c2ccccc2Cl)cs1 | inconclusive: 35.5 µM [activator, single point] | – |
| CN(NC1CC(=O)N(c2ccccc2)C1=O)c1ccccc1 (stereo not drawn) | inconclusive: 14.1 µM [activator, single point] | – |
| CC1=CC(C)(C)NC(=S)N1c1cc(C)cc(C)c1 | active: 3.55 µM | – |
| Cc1nn(C)c(C)c1Sc1ccc(Br)cc1 | – | inactive: 2.67% |
| COc1ccc(OC)c(C2=NS(=O)(=O)N(C)C(C(=O)Nc3ccc(F)cc3F)=C2)c1 | inconclusive: 15.8 µM [activator, single point] | – |
| COC(=O)C1=C(C)Nc2nc3ccccc3n2C1c1ccccc1F (stereo not drawn) | inconclusive: 2.24 µM [inhibitor, full curve] | – |
| Cc1ccc(-c2nnc3ccc(SCC(=O)Nc4cc(C)on4)nn23)cc1 | – | inactive: 4.63% |
| O=C(O)CN(CCN(CC(=O)O)CC(=O)O)CC(=O)O | inactive | – |
| COc1ccc(OC)c(S(=O)(=O)NCCS(=O)(=O)N2CCN(c3ccccc3)CC2)c1 | inconclusive: 12.6 µM [activator, single point] | – |
| Cc1cccc(N(CC(O)CON=C2c3ccccc3-c3ccccc32)S(C)(=O)=O)c1 (stereo not drawn) | – | inactive: 18% |
| C[C@@H]1C(SC2Cn3cnc[n+]3C2)=C(C(=O)[O-])N2C(=O)[C@H]([C@@H](C)O)[C@@H]12 (stereo partly drawn) | – | inactive: 12.4% [at 10 µM] |
| CCNC(=S)N/N=C/c1c(C)nn(-c2cccc(Cl)c2)c1Cl | active: 1.41 µM | – |
| O=S(=O)(c1ccc2c(c1)OCCO2)N1CCC(O)(c2ccc(Cl)cc2)CC1 | inconclusive: 20 µM [activator, single point] | – |
| Cc1cccc(OCc2nnc(SCC(=O)Nc3ccc(C)c(C)c3)o2)c1 | – | inactive: -23.9% |
| CCn1c(CCCc2ccc(OC)c(C)c2)n[nH]c1=S | active: 2.24 µM | – |
| Cn1c(N)c(C(=O)/C=C/c2ccccc2)c(=O)[nH]c1=O | – | inactive: 3.32% |
| COC(=O)CC1C(=O)NCCN1C(=S)NC(=O)c1sc2ccccc2c1Cl (stereo not drawn) | active: 0.631 µM | – |
| CCCCOc1ccc(-c2nc(/C=N/c3nccs3)c(O)o2)cc1 | inconclusive: 5.01 µM [inhibitor, partial curve] | – |
| C/C=C/C=N/NC(=O)CN(c1ccc(Br)cc1)S(=O)(=O)c1ccccc1 | inconclusive: 20 µM [inhibitor, single point] | – |
| S=C(NCCCc1ccccc1)NC1CCCCC1 | active: 4.47 µM | – |
| Cc1cccc(OCc2nnc(SCc3cc(=O)[nH]c4ccccc34)n2-c2ccccc2)c1 | inconclusive: 35.5 µM [activator, single point] | – |
| CC(C)(C)C(=O)COC(=O)c1ccc2c(c1)C(=O)N(Cc1ccco1)C2=O | – | inactive: 1.13% |
| Cc1nn(-c2ccccc2)c(Cl)c1/C=N/Nc1ccc(Cl)c(C(=O)O)c1 | inconclusive: 6.31 µM [inhibitor, single point] | – |
| O=C(N/N=C/c1cc([N+](=O)[O-])ccc1O)c1c[nH]c2ccccc12 | active: 5.01 µM | – |

From PubChem BioAssay AID2551 (National Center for Advancing Translational Sciences (NCATS), 2010)
